Assay results taken from the M2OR odorant receptor database.
The other results are listed elsewhere or left out. Calls are pooled over several reports, among them a noisy single-well screen.

Key:
Conditions in all cases: stereoisomer not certain
O13J1 = tested on: T1, O13J1
T1 sequence (whole entry): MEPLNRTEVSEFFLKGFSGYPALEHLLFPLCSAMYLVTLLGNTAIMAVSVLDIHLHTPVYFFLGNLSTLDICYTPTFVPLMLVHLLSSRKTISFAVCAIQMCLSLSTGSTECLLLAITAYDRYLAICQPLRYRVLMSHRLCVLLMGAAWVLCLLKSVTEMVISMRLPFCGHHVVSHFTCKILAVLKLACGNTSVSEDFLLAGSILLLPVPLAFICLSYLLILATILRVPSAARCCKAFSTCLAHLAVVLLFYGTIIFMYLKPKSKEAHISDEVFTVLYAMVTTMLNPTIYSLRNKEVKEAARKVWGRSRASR
How it was run: (§1)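 Transient luciferase assays in mammalian cell lines were common, though methods varied by source. The values come from published papers and their supplementary material, with extra details from the original authors when needed. Responsive refers to a measured signal the original authors judged statistically different from baseline, and non-responsive (inactive) to the remainder.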

O14A2 = tested on: T2, O14A2
T2 sequence (whole entry): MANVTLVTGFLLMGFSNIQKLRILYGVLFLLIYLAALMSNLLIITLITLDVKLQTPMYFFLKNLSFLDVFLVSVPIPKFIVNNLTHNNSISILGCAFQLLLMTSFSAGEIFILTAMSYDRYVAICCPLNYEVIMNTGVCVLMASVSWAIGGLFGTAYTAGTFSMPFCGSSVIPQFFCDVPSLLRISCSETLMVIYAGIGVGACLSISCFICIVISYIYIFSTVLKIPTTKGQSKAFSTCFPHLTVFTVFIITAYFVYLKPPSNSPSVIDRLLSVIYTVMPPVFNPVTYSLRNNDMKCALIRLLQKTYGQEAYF
How it was run: as §1

O14AG = tested on: T3, O14AG
T3 sequence (whole entry): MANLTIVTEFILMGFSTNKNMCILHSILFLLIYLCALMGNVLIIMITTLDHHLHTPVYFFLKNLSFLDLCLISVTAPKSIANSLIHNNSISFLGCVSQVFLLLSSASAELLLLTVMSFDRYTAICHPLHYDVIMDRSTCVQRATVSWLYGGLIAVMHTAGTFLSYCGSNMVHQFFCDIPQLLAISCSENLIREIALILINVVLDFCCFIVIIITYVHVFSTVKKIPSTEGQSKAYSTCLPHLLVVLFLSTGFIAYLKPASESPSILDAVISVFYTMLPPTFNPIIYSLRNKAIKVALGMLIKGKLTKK
How it was run: as §1

O14CZ = tested on: T4, O14CZ
T4 sequence (whole entry): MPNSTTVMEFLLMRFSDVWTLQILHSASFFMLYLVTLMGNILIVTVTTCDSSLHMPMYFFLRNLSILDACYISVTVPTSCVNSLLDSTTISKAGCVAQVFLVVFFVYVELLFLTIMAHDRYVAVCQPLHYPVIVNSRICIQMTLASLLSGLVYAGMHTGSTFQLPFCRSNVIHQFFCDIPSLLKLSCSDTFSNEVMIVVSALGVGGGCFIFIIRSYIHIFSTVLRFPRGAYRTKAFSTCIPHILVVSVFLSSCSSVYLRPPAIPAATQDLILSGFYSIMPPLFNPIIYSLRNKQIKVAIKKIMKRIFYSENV
How it was run: as §1

O14I1 = tested on: T5, O14I1
T5 sequence (whole entry): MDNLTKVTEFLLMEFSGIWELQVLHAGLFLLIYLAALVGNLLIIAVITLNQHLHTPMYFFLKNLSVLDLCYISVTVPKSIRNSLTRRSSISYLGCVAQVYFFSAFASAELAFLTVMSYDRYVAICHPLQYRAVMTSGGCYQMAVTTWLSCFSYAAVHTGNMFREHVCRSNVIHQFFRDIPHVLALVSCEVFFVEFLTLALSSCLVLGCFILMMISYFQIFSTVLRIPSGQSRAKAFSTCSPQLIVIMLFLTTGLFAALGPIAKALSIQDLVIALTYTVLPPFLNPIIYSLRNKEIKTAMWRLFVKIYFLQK
How it was run: as §1

O14J1 = tested on: T6, O14J1
T6 sequence (whole entry): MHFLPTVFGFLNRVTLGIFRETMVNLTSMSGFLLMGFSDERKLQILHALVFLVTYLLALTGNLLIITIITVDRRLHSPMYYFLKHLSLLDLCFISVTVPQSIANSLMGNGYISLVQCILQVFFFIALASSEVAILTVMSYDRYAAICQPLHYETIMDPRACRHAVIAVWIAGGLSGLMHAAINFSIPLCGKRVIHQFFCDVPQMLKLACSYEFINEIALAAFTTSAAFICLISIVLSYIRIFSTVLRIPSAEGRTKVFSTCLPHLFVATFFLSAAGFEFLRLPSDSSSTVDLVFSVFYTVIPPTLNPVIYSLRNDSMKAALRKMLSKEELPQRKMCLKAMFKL
How it was run: as §1

O14K1 = tested on: T7, O14K1
T7 sequence (whole entry): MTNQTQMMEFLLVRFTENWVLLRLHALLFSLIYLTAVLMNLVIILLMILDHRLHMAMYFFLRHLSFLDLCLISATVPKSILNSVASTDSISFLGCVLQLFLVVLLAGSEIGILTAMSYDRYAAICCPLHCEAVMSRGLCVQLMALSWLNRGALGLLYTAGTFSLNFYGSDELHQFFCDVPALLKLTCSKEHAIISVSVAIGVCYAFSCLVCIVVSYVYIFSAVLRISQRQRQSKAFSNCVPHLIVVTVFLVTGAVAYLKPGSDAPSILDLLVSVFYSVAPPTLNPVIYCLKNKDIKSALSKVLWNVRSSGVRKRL
How it was run: as §1

O14L1 = tested on: T8, O14L1
T8 sequence (whole entry): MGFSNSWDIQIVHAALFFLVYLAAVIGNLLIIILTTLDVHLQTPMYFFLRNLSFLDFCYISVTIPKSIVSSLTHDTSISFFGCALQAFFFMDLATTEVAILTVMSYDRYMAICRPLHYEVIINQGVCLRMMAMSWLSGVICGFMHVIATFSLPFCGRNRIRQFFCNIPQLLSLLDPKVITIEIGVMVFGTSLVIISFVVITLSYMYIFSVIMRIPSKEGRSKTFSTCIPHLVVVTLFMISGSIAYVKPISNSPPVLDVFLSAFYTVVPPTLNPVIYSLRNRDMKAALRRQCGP
How it was run: as §1

O2A14 = tested on: T9, O2A14
T9 sequence (whole entry): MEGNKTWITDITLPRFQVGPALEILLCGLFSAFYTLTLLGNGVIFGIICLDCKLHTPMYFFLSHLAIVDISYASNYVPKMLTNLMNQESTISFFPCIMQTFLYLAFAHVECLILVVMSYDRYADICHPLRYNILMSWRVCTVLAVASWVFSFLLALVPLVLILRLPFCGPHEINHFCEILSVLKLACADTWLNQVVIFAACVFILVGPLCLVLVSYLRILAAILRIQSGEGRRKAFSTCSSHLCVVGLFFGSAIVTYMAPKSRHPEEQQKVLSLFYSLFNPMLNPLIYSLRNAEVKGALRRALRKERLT
How it was run: as §1

O2AE1 = tested on: T10, O2AE1
T10 sequence (whole entry): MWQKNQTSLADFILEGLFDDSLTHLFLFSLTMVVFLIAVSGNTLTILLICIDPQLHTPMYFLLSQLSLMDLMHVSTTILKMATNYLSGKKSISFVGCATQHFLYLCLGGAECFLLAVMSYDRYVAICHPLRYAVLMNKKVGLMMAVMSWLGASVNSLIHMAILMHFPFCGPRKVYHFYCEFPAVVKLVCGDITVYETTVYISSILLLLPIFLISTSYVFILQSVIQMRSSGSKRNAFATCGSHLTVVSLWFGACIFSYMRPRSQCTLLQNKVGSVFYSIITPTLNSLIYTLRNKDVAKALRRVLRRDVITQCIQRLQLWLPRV
How it was run: as §1

Measured: odorant receptor agonist call;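 note: active if original authors judged signal statistically different from baseline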

CS
inactive: all assays above
